# Assay results from publication PMC11596093.
# Sequences of proteins named here, by UniProt entry; tags and fusion partners are left off.
# UniProt Q08775: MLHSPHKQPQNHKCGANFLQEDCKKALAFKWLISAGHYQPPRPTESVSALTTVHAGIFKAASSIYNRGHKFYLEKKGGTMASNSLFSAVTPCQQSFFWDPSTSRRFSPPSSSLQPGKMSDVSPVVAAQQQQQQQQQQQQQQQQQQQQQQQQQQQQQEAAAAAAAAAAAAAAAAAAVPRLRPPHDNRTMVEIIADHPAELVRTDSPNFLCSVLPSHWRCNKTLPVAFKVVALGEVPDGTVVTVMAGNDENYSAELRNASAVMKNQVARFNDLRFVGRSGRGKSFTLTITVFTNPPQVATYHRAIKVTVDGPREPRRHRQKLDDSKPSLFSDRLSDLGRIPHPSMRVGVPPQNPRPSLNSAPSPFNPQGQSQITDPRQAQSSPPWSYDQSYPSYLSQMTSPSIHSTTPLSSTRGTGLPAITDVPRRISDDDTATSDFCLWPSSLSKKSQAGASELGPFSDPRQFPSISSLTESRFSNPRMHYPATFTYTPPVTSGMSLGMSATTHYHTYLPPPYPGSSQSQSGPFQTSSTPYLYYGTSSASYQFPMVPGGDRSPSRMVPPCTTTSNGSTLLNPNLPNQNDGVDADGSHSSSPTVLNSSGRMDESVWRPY
# No constants are given. Whether binding was seen depends on the method and setting. In cells and extracts the contact can be indirect. Some entries that bind do so weakly or less than the wild type.
# T1: four and a half LIM domains 2 (FHL2) (mouse (endogenous in MOVAS)) (UniProt O70433)
# T1 sequence: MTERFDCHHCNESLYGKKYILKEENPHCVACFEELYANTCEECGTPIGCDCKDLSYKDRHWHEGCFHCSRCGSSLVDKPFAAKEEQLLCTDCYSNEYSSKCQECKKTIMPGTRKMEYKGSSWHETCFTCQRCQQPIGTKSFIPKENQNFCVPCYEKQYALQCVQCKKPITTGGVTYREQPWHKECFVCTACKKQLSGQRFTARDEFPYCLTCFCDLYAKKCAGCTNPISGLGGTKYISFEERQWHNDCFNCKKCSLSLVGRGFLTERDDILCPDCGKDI
# B1: four and a half LIM domains 2 (FHL2) (protein, UniProt O70433 1-279)
# chain: T1 sequence
# What was measured:
# [1] = biological target: T1, four and a half LIM domains 2 (FHL2) (mouse (endogenous in MOVAS)); experiment: co-IP; Pierce Co-Immunoprecipitation Kit; endogenous proteins of MOVAS cells treated with 3 mmol/L sodium dihydrogen phosphate; precipitation with anti-FHL2 (MBL #K0055-3) or anti-Runx2 (MBL #D130-3) antibody, 7.5 uL/mg protein; both directions
# [2] = biological target: runt-related transcription factor 2 (RUNX2) (mouse (endogenous in MOVAS)) (UniProt Q08775); experiment: as above
Molecule,binding [1],binding [2]
runt-related transcription factor 2 (RUNX2) (from UniProt Q08775 1-607),binds,
B1,,binds
